Experimental findings from article PMC5268738, “A sequential multi-target Mps1 phosphorylation cascade promotes spindle checkpoint signaling” (eLife, 2017) are described below.

For one test, the target named is T1, human Mad1^CTD (human) (UniProt Q9Y6D9).
T1 sequence: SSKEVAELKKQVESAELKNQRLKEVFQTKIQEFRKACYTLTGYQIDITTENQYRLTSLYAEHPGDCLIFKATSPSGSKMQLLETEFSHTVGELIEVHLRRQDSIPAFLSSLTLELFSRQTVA
In words: ITC; 20°C; 25 mM HEPES pH 7.5, 50 mM NaCl; human Mad1^CTD (50 µM) in the cell; human Bub1 phospho-peptides (500 µM) injected; both purified. Background: Isothermal titration calorimetry measures the heat released or taken up as one component is titrated into another.

Test [1] concerns the target T2, human Bub1 CM phospho-peptide pS459-pT461 (human) (UniProt O43683).
T2 sequence (peptide, phosphoserine at 459, phosphothreonine at 461): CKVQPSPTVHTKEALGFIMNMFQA
Put plainly: pull-down; synthetic Bub1 phospho-peptides immobilised on SulfoLink resin; Mad1 CTD as prey; SDS-PAGE, Coomassie blue; both purified.

Test [2] addresses T3, human Bub1 CM phospho-peptide pS459-pT461-pT464 (human) (UniProt O43683).
T3 sequence (peptide, phosphoserine at 459, phosphothreonine at 461, phosphothreonine at 464): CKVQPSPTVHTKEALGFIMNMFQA
The test is described as above.

Test [3] has as its target T4, human Bub1 CM phospho-peptide pT461 (human) (UniProt O43683).
T4 sequence (peptide, phosphothreonine at 461): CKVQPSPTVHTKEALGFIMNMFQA
Described as above.

No constants are given. Whether binding was seen depends on the method and setting. Some binding calls cover weakened binding; strength is not graded here.

For CKVQPSPTVHTKEALGFIMNMFQA (peptide, UniProt O43683 455-477, phosphoserine at 459, phosphothreonine at 461) [human Bub1 CM phospho-peptide pS459-pT461], in the test with human Mad1^CTD (human), the binding entry is given as “binds”.

B1: human Mad1^CTD (domain or fragment, UniProt Q9Y6D9 597-718)
chain: SSKEVAELKKQVESAELKNQRLKEVFQTKIQEFRKACYTLTGYQIDITTENQYRLTSLYAEHPGDCLIFKATSPSGSKMQLLETEFSHTVGELIEVHLRRQDSIPAFLSSLTLELFSRQTVA
On to B1, for which the figures for the binding entry in test [1], in test [2] and in test [3] were “binds”, “binds” and “binds weakly”, respectively.

Consider CKVQPSPTVHTKEALGFIMNMFQA (peptide, UniProt O43683 455-477, phosphothreonine at 461) [human Bub1 CM phospho-peptide pT461], for which the binding entry with human Mad1^CTD (human) is on record as “binds”.
